{
  "source": "the supplement of paper PMC3334620",
  "note": "Over roughly 33,000 sequences, “E-score (-0.5 to 0.5)” has its median near -0.016; the highest 2% begin near 0.3. The list shows a part of the results.",
  "data": [
    {"molecular_target": "T1, Yer184c (UniProt P39961)", "T1 sequence": "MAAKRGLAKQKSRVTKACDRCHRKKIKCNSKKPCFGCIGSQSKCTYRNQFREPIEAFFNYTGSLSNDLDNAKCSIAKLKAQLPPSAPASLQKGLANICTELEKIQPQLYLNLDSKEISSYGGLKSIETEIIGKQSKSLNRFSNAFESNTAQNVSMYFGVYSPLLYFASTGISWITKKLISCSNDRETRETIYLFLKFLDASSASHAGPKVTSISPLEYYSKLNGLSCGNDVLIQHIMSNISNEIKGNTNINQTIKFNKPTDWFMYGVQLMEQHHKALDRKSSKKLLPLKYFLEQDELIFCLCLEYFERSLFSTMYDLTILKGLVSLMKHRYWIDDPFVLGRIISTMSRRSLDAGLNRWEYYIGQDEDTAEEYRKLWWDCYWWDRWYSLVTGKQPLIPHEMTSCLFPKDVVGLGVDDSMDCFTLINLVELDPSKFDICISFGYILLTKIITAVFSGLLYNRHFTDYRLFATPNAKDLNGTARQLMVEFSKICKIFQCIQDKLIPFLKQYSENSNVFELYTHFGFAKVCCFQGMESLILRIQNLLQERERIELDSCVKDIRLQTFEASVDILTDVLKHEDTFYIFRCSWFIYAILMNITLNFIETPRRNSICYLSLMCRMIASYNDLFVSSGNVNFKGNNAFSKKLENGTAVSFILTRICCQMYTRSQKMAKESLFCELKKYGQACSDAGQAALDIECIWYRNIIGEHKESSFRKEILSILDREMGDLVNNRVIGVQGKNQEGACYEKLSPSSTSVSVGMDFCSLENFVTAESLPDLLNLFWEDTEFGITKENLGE", "assay": "PBM E-score (8-mer binding enrichment) (E-score (-0.5 to 0.5)); higher = stronger / more preferred TF binding", "conditions": "protein concentration: 100 nM; construct: GST-full length", "protocol": "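Universal 'all 10-mer' protein binding microarrays (Agilent AMADID 015681) probed with GST-tagged S. cerevisiae TFs (full-length or DBD) made by in vitro transcription/translation (PURExpress), about 100-200 nM. Bound TF was detected with fluorescent anti-GST. Each ungapped 8-mer (which stands for itself and its reverse complement) is scored by the PBM enrichment score (E-score), a modified Wilcoxon-Mann-Whitney statistic from -0.5 to +0.5, computed with the Universal PBM Analysis Suite. Scale: above 0.35 generally sequence-specific binding.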", "values": [
      {"sequence": "GCATAGGC", "PBM E-score": -0.26},
      {"sequence": "CACATCCA", "PBM E-score": -0.0038},
      {"sequence": "CCAAATAC", "PBM E-score": -0.123},
      {"sequence": "ACAACACT", "PBM E-score": 0.143},
      {"sequence": "ACGCCGTA", "PBM E-score": 0.0437},
      {"sequence": "GGATGTTA", "PBM E-score": 0.0131},
      {"sequence": "CTCGGAAA", "PBM E-score": 0.289},
      {"sequence": "CTTGCAGA", "PBM E-score": -0.0454},
      {"sequence": "CCCTCTTA", "PBM E-score": -0.157},
      {"sequence": "AAGGCTTG", "PBM E-score": -0.151},
      {"sequence": "CAACGTAC", "PBM E-score": -0.0763},
      {"sequence": "CGATAGCG", "PBM E-score": -0.128},
      {"sequence": "CCAGCGGA", "PBM E-score": -0.238},
      {"sequence": "ACTAAATA", "PBM E-score": 0.221},
      {"sequence": "ACGCATGC", "PBM E-score": 0.215},
      {"sequence": "ACCGTCGT", "PBM E-score": 0.105},
      {"sequence": "CATCTTCC", "PBM E-score": 0.0831},
      {"sequence": "ACATTGGC", "PBM E-score": -0.134},
      {"sequence": "CACCGGAC", "PBM E-score": 0.268},
      {"sequence": "CGGGCGAA", "PBM E-score": 0.107},
      {"sequence": "GGGCGAAC", "PBM E-score": 0.0696},
      {"sequence": "GTCGGTTA", "PBM E-score": 0.149},
      {"sequence": "AAGCGAAC", "PBM E-score": -0.0829},
      {"sequence": "CGCGCTCA", "PBM E-score": 0.0286},
      {"sequence": "ATACGACC", "PBM E-score": -0.182},
      {"sequence": "CTATTTCA", "PBM E-score": 0.251},
      {"sequence": "CTGGGCTA", "PBM E-score": -0.26},
      {"sequence": "CGCCAGGA", "PBM E-score": -0.0944},
      {"sequence": "AGCGACGG", "PBM E-score": 0.0874},
      {"sequence": "ACGAGCAG", "PBM E-score": -0.0845},
      {"sequence": "AAATCATA", "PBM E-score": 0.187},
      {"sequence": "AATGCATT", "PBM E-score": 0.121},
      {"sequence": "ATCCAACG", "PBM E-score": -0.0561},
      {"sequence": "GACGGGAC", "PBM E-score": -0.125},
      {"sequence": "GAATCCAA", "PBM E-score": 0.0377},
      {"sequence": "AAGGAAAC", "PBM E-score": 0.0646},
      {"sequence": "ACCCAGTG", "PBM E-score": -0.306},
      {"sequence": "ACACACTA", "PBM E-score": -0.0687},
      {"sequence": "CGGAGAGA", "PBM E-score": 0.185},
      {"sequence": "CAGGATGG", "PBM E-score": -0.115},
      {"sequence": "TAGCGATA", "PBM E-score": -0.0205},
      {"sequence": "AGGCGAAA", "PBM E-score": -0.031},
      {"sequence": "AACCATGA", "PBM E-score": 0.0716},
      {"sequence": "CAGGTTAC", "PBM E-score": -0.131},
      {"sequence": "ATTATGCA", "PBM E-score": -0.0522},
      {"sequence": "CCGGGAAA", "PBM E-score": 0.35},
      {"sequence": "AAAGCATG", "PBM E-score": -0.0668},
      {"sequence": "GGGAGGGA", "PBM E-score": -0.105},
      {"sequence": "GATTTGGA", "PBM E-score": 0.0599},
      {"sequence": "CATAAATC", "PBM E-score": 0.0811},
      {"sequence": "GAGTAACA", "PBM E-score": 0.211},
      {"sequence": "AGTGGACC", "PBM E-score": -0.274},
      {"sequence": "AATGGGGC", "PBM E-score": -0.352},
      {"sequence": "ATGTCCGA", "PBM E-score": 0.231},
      {"sequence": "CGATTTAA", "PBM E-score": 0.166},
      {"sequence": "CATTAAAC", "PBM E-score": 0.0982},
      {"sequence": "CTGTAACC", "PBM E-score": 0.0184},
      {"sequence": "CAGGGATG", "PBM E-score": -0.128},
      {"sequence": "GCTCTCCC", "PBM E-score": -0.232},
      {"sequence": "AAAATATT", "PBM E-score": 0.0702},
      {"sequence": "CGCCAGCG", "PBM E-score": 0.026},
      {"sequence": "TTGTGAAA", "PBM E-score": 0.0648},
      {"sequence": "ACATGATC", "PBM E-score": 0.073},
      {"sequence": "AAGGTTTA", "PBM E-score": -0.147},
      {"sequence": "GCAAAGGA", "PBM E-score": 0.0463},
      {"sequence": "ACATACCC", "PBM E-score": -0.0199},
      {"sequence": "ATCAACTA", "PBM E-score": 0.178},
      {"sequence": "GAATTGCC", "PBM E-score": 0.108},
      {"sequence": "ATATTCCC", "PBM E-score": 0.176},
      {"sequence": "AAAGCAGA", "PBM E-score": -0.0147},
      {"sequence": "GACCAACC", "PBM E-score": -0.211},
      {"sequence": "CAAGAGGA", "PBM E-score": -0.0179},
      {"sequence": "AAGGGTCA", "PBM E-score": -0.204},
      {"sequence": "ATCTTCTA", "PBM E-score": 0.0751},
      {"sequence": "ACGGAAGC", "PBM E-score": 0.274},
      {"sequence": "CACCCTGC", "PBM E-score": -0.179},
      {"sequence": "GCATTCCC", "PBM E-score": -0.182},
      {"sequence": "TACCTCAA", "PBM E-score": -0.122},
      {"sequence": "GGGAGCTA", "PBM E-score": -0.172},
      {"sequence": "CGTACGCC", "PBM E-score": -0.0929},
      {"sequence": "CTCGTGGA", "PBM E-score": 0.0295},
      {"sequence": "GAGCGTGA", "PBM E-score": -0.0778},
      {"sequence": "ATAAGGCA", "PBM E-score": -0.123},
      {"sequence": "ATGAGTTG", "PBM E-score": 0.0868},
      {"sequence": "GAAAGCCA", "PBM E-score": -0.19},
      {"sequence": "AAAAATTA", "PBM E-score": 0.253},
      {"sequence": "CTGTCACA", "PBM E-score": -0.146},
      {"sequence": "ATGCGTGC", "PBM E-score": 0.0442},
      {"sequence": "GAATGTCC", "PBM E-score": 0.0884},
      {"sequence": "AAGGATCA", "PBM E-score": -0.0829},
      {"sequence": "ATGAAGAC", "PBM E-score": 0.0825},
      {"sequence": "TAGCTGGA", "PBM E-score": -0.265},
      {"sequence": "AACTTTAA", "PBM E-score": 0.262},
      {"sequence": "TGCAAACA", "PBM E-score": -0.168},
      {"sequence": "ACTAGGCG", "PBM E-score": -0.00043},
      {"sequence": "CGAATCGA", "PBM E-score": 0.22},
      {"sequence": "CGTTGCTC", "PBM E-score": -0.0485},
      {"sequence": "ATCCCGCG", "PBM E-score": 0.285},
      {"sequence": "GTTGTAGA", "PBM E-score": 0.191},
      {"sequence": "ACGATACC", "PBM E-score": 0.0646},
      {"sequence": "CGTGTCTC", "PBM E-score": -0.152},
      {"sequence": "AAGCAGAT", "PBM E-score": 0.0686},
      {"sequence": "CGTACACA", "PBM E-score": 0.028},
      {"sequence": "TGCGATAA", "PBM E-score": 0.108},
      {"sequence": "ATGTCACC", "PBM E-score": 0.0717},
      {"sequence": "ATGTAGAA", "PBM E-score": -0.0706},
      {"sequence": "AAATCGCC", "PBM E-score": 0.0957},
      {"sequence": "CAATCAAG", "PBM E-score": -0.0394},
      {"sequence": "CACAGTTA", "PBM E-score": 0.0151},
      {"sequence": "CGAAAAGA", "PBM E-score": 0.294}
    ]}
  ]
}
